For one molecule, binding results are on record in article PMC3721995.

These are yes or no findings as the source states them, for the method shown. Binding calls can cover weak binding; strength is not graded here.

This test concerns the target recombinant HIV-1 gp120BaL protein (HIV-1 (isolate BaL)). The experiment in a line: ELISA; competition ELISA; biotinylated P19 (40 ug/ml) mixed with increasing concentrations of non-biotinylated P19 and added to a gp120-coated plate (8 ug/ml), 37°C, 60 min; P1 as control at 640 ug/ml; both purified.

As for GWLSHNCGHGEDAGV (biotin on the N-terminus) [SRCR1 peptide P19, biotinylated], the binding result is given as “binds”.
